# Results of single-concentration screens

Sequences of proteins named here, by UniProt entry; tags and fusion partners are left off. Residues count along the entry.
UniProt Q8IDJ8, 1-583: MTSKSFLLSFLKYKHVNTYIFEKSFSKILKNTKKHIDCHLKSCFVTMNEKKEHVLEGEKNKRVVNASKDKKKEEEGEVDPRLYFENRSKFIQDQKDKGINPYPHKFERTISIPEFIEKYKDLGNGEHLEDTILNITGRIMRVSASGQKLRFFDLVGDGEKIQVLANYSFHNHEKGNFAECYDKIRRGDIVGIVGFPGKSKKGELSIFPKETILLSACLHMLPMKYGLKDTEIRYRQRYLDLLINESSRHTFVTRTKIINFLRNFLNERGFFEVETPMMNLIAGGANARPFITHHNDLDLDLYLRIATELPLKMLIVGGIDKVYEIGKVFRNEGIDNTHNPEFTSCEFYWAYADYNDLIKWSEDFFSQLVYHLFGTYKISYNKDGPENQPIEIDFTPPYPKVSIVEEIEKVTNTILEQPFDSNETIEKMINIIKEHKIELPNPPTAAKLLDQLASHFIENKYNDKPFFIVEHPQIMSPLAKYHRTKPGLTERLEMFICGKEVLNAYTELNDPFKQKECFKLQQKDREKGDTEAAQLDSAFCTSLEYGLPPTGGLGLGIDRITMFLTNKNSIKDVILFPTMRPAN
UniProt I6X8D2, whole entry: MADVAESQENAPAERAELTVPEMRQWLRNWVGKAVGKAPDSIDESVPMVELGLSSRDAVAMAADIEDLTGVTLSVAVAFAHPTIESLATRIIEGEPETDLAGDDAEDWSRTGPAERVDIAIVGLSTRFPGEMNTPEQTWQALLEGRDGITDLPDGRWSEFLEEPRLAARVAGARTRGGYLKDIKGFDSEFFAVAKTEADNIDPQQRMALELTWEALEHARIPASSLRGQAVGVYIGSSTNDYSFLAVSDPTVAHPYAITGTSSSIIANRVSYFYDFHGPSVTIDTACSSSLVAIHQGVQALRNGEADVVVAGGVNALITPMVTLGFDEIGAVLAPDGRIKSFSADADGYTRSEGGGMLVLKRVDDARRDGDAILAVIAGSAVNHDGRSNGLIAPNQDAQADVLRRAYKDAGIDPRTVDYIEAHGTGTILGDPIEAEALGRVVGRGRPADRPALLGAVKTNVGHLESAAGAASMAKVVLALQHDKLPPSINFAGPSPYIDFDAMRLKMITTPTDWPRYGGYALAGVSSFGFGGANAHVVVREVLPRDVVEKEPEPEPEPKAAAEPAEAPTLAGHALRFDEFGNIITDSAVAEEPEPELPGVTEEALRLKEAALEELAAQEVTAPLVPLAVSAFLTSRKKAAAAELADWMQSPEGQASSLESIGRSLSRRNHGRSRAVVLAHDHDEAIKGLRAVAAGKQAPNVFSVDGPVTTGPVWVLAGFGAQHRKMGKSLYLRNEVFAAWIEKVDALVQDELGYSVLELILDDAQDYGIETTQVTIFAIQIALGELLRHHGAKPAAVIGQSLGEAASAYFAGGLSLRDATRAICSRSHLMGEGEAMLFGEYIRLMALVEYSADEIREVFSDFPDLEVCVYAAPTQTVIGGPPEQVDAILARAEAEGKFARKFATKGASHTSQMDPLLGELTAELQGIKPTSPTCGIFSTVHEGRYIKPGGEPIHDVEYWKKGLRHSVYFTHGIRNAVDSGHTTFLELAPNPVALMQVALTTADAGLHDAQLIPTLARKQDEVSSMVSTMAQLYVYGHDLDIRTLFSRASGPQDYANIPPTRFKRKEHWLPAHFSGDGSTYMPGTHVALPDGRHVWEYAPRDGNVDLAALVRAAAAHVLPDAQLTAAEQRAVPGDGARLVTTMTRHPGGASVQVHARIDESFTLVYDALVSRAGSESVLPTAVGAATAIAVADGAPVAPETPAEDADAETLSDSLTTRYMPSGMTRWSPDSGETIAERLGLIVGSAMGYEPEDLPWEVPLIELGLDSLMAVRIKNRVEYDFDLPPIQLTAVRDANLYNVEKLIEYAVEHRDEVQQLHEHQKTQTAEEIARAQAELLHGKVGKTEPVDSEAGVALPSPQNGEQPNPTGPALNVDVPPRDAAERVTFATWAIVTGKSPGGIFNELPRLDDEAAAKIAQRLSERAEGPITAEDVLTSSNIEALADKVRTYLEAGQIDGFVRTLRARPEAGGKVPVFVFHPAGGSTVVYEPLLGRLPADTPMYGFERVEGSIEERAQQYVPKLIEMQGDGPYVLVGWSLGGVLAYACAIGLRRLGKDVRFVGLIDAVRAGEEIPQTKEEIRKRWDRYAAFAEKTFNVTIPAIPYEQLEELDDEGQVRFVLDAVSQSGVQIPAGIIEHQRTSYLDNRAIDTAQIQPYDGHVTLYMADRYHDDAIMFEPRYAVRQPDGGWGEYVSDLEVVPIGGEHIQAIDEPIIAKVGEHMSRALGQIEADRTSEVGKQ
UniProt P9WFT3, whole entry: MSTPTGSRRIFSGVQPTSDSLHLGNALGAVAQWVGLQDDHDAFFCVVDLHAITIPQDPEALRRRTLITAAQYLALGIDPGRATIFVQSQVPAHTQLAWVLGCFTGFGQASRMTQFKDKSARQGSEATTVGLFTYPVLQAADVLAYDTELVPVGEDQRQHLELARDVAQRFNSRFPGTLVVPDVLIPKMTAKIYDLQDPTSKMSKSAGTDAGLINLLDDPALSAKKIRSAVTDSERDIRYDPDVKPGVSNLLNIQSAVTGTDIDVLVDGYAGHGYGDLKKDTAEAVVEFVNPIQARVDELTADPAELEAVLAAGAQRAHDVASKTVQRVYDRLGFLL
UniProt Q4DA54, 1-478: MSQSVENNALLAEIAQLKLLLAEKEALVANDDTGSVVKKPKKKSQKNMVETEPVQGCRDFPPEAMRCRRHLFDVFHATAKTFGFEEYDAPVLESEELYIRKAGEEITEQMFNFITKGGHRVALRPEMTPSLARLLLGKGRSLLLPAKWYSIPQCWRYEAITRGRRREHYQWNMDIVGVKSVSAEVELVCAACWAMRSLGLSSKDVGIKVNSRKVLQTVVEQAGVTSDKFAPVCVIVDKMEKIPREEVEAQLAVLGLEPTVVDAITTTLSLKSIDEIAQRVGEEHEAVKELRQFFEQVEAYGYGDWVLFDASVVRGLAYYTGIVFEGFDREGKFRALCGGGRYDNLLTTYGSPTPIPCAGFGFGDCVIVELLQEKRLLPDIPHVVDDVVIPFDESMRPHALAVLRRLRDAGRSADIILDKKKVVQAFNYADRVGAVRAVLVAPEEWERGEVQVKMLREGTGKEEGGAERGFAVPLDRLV

Values are the deposited “Percent Effect”, in %.
The record does not define 0% and 100%; most values in the screen are far below 50% and negative numbers occur (in some assays of this library far below -100).
Compounds were drawn at random from those tested, without regard to their results.
A dash means the value is not listed here; it may have been measured.

A: 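Lysine-tRNA ligase, Plasmodium falciparum 3D7 (UniProt Q8IDJ8). Enzyme assay of the cytosolic lysyl-tRNA synthetase in 384-well plates, read by luminescence. Concentration: 30 µM. Direction is inferred from only a few compounds that gave an IC50; most scored high, so higher reads as stronger inhibition. About 69,000 compounds were tested under these conditions; 0.071% (about 49) showed 50% or more at least once.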
B: 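Polyketide synthase Pks13, Mycobacterium tuberculosis (UniProt I6X8D2). Enzyme assay of the thioesterase domain of polyketide synthase 13; the read-out is not stated. Compounds at 30 µM. Higher reads as stronger inhibition (inferred from which compounds were picked for retests). Of about 67,000 compounds tested this way, about 300 (0.46%) reached 50% or more in at least one test.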
C: 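Tryptophan-tRNA ligase, Mycobacterium tuberculosis (UniProt P9WFT3). Enzyme assay of tryptophanyl-tRNA synthetase; the read-out is not stated. Compounds at 10 µM. Higher most likely means stronger inhibition; the record gives no direction and few retests gave an IC50. About 65,000 compounds were tested under these conditions; 0.098% (about 64) showed 50% or more at least once.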
D: 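Histidine-tRNA ligase, Trypanosoma cruzi CL Brener (UniProt Q4DA54). Enzyme assay of histidyl-tRNA synthetase; the read-out is not stated. Compounds at 30 µM. Direction is inferred from retests: higher values go with stronger inhibition. About 69,000 compounds were tested under these conditions; 0.045% (about 31) showed 50% or more at least once.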

compound	A	B	C	D
Nc1nccnc1C(=O)N(Cc1ccco1)CC1CCCO1 (stereo not drawn)	2.306%	-26.81%	-2.169%	3.665%
Cc1nc(C2CCCN(C(=O)c3ccc(N4CCCC4)nc3)C2)no1 (stereo not drawn)	2.928%	-6.313%	-3.021%	1.128%
c1cc(-c2nnc3sc(CCN4CCCC4)nn23)ccn1	0.5023%	-10.54%	2.34%	16%
CCn1ncnc1CN1CCc2[nH]cnc2C1CCc1ccccc1 (stereo not drawn)	-2.952%	-55.8%	1.838%	8.152%
O=C(CCc1ccc(Cl)cc1)NC1CCN(c2cccc(F)c2)CC1	6.43%	-4.693%	0.2867%	3.509%
COCCn1ccc(=O)c(OCC(=O)Nc2ccccc2)c1C	4.187%	-22.43%	-3.618%	0.5464%
CN1CCCCC12CCN(c1nncs1)CC2	-7.683%	-8.629%	11.87%	-2.151%
Cc1cc(C)c(Cn2cncn2)cc1CN1CC[C@H]2CC[C@@H](C1)N2	2.465%	-27.19%	4.873%	-4.255%
COc1cc2c(cc1CN1CCc3sccc3C1C)OCO2 (stereo not drawn)	1.345%	6.287%	-7.67%	-1.55%
CCN(Cc1ccncc1)C(=O)C1COc2c(cccc2OC)C1 (stereo not drawn)	3.278%	34.12%	-0.2241%	14.12%
CN1CCOC(CNCc2cccc(OCC(F)(F)F)c2)C1 (stereo not drawn)	9.019%	-37.92%	0.7081%	7.519%
O=C(Nc1ccc(CN2CCOCC2)cc1)c1nccn2ccnc12	-5.117%	-7.195%	-2.388%	2.105%
CC1CCCN1C1CCN(C(=O)c2cccc(F)c2)CC1 (stereo not drawn)	-3.201%	9.973%	1.815%	6.316%
Cc1nc(C)c(CN2CCOC(CNc3cccnn3)C2)s1 (stereo not drawn)	-2.576%	-	0.4259%	4.298%
Cc1cc(-c2cc(-c3cc(CC(=O)O)cs3)nc(N)c2C#N)oc1C	3.388%	-107.5%	-1.802%	11.4%
O=C(c1ccc(Cl)cc1)N1CCC(N2CCNC2=O)CC1	1.727%	-5.078%	-6.655%	-42.01%
CN(C)CCNc1cc(-c2ncccc2Cl)c2cc[nH]c2n1	-0.1786%	-25.53%	0.3749%	5.319%
CC(C)NC(=O)NCCn1cnc(C2CCCC2)cc1=O	2.094%	-36.94%	-2.052%	0%
Cc1nnc2n1CCN(C(=O)c1cc(Cl)c(Cl)n1C)C2	5.639%	-8.035%	2.358%	-1.141%
Cc1nc(C)n(C2CCCN(C(=O)c3cscn3)C2)n1 (stereo not drawn)	-1.461%	-10.77%	19.35%	4.36%
CCn1ccc(-c2cc(C(=O)O)n3nc(C(F)(F)F)c(Br)c3n2)n1	5.648%	-9.682%	-2.202%	-11.34%
Cc1cnc2c(S(=O)(=O)NCC3CC3)cccc2c1	-1.005%	0.1927%	-9.487%	2.312%
CCc1n[nH]c(C2CN(C(=O)c3ccnc(C)n3)CCO2)n1 (stereo not drawn)	-0.249%	-27.24%	12.91%	3.429%
CC(=O)Nc1nc(C(=O)NCCOc2ccccc2F)cs1	5.194%	-3.214%	-1.958%	4.124%
O=C(Cc1csc(N2CCNC2=O)n1)NC(c1ccccc1)C1CC1 (stereo not drawn)	7.423%	4.657%	3.273%	7.097%
Cc1csc(N2CCN(C(=O)CCNc3ncccn3)CC2)n1	3.179%	-4.574%	2.269%	3.759%
CC(C)N1C(=O)CO[C@H]2CCN(C(=O)c3ccc4c(c3)CCC4)CC[C@@H]21	0.08537%	12.96%	-4.976%	9.848%
CC(C)c1nnc(CN2CCC3(CC2)Nc2ccccc2NC3=O)o1	-0.9629%	-8.722%	9.455%	3.226%
CN1C(=O)CC[C@]12CC[C@@H](NCc1ccsc1)CC2	2.23%	-22.68%	-2.035%	6.796%
CCC[C@@H]1CN(Cc2ccc3c(c2)OCCO3)C[C@H]1C(=O)O	-2.488%	-2.868%	0.6522%	5.528%
COc1ccc(OC)c(C2CC(=O)Nc3nc(N4CCOCC4)sc32)c1 (stereo not drawn)	84.46%	12.07%	6.102%	75.78%
CC(CN1CCOC1=O)NC(=O)c1ccccc1Oc1ccccc1 (stereo not drawn)	-2.173%	-11.22%	-2.21%	4.348%
Cc1ccc2oc(=O)n(CC(=O)N3CCC4(CC3)CN(C)C(=O)O4)c2c1	4.09%	0.5559%	-0.2564%	2.469%
CC(C)n1ccc(CN2CCOC(CNc3cccnn3)C2)n1 (stereo not drawn)	0.2109%	-2.067%	-1.428%	10.95%
COc1ccc(C2CCCN2C(=O)c2ccnc(NC3CC3)c2)cc1 (stereo not drawn)	1.89%	-32.74%	-2.039%	1.657%
CCOCC(=O)NCC(CC)(OC)c1ccccc1 (stereo not drawn)	4.448%	-30.95%	-5.547%	-13.4%
Cc1c(C(=O)NC2(C#N)CCSC2)cnn1-c1ccccc1Cl (stereo not drawn)	8.549%	-13.87%	-4.46%	11.11%
CCN1CCC(CC(=O)N2CCCCC2CCn2cccn2)CC1 (stereo not drawn)	2.724%	-41.35%	-5.684%	2.674%
Cc1cc(CN(C)C(=O)NC2CCN(Cc3ccccn3)CC2)no1	0.0703%	-20.68%	0.2596%	2.882%
c1c(CN2CCCCC2)nc2n1CCNC2	-7.748%	17.37%	5.5%	6.863%
C/C(=C/c1ccccc1)CNCc1cccc(C(N)=O)c1	3.635%	-26.62%	-0.7498%	7.071%
Cc1ccc(C(O)CNC(=O)NCc2c(C)cc(C)[nH]c2=O)cc1 (stereo not drawn)	-0.2117%	0.403%	-1.355%	5.202%
O=C(Cn1cnc(-c2cccs2)cc1=O)Nc1cccnc1	3.339%	-27.75%	-1.444%	5.155%
CC(C)=Cc1c(-c2ccccc2)ncn1CCS(C)(=O)=O	5.801%	-37.79%	-0.1679%	7.143%
COc1ccc(OC)c(C(O)CN2CC(n3cccn3)C2)c1 (stereo not drawn)	0.4002%	-22.21%	-0.4717%	4.183%
CCCS(=O)(=O)N1CCN(c2ccnc(N3CCCC3)n2)CC1	2.566%	-14.88%	-2.256%	0.8264%
COCCc1ncc(-c2c(C#N)c(N)nc3c2CCc2[nH]ccc2-3)cn1	26.07%	-0.1297%	1.642%	32.97%
CC(C)(NCC(=O)NCC1CC1)c1ccc2c(c1)OCCO2	-0.9873%	-15.17%	1.847%	2.907%
CC(C)C[C@@H](N)C(=O)N(C)Cc1csc(C(C)C)n1	0.03363%	-5.721%	10.28%	0.5291%
CCc1ccsc1C(=O)N1CCN(CC(N)=O)CC1	-1.38%	-14.1%	11.19%	3.134%
Cc1nc(C)c(C(=O)NCCNC(=O)c2ccc(F)cc2F)s1	1.046%	-8.564%	2.235%	-0.3831%
OC1(CN2CCCC2)CCCN(Cc2cnc(-c3ccccc3)nc2)C1 (stereo not drawn)	-5.738%	-6.947%	-0.7947%	18.67%
CN(C)C(=O)c1ccccc1NC(=O)N[C@@H]1c2ccccc2C[C@@H]1O	1.656%	-16.65%	1.67%	12.73%
O=C(c1ccccn1)N1C[C@@H]2CC[C@H](C1)N(C(=O)CCC(F)(F)F)C2	3.027%	1.731%	-3.986%	-0.5025%
OC(COCc1ccc2c(c1)OCO2)CN1CC(n2cccn2)C1 (stereo not drawn)	-2.409%	-16.44%	-11.86%	7.692%
Cc1ccc(-c2cc(N)c(=O)n(CC(=O)NC3CCCC3)n2)s1	-0.4031%	10.09%	-	2.996%
COc1cc2ccn(CCCO)c(=O)c2cc1F	8.198%	-4.528%	-8.354%	5.882%

3 of the entries, repeated:

| compound | A | B | C | D |
|---|---|---|---|---|
| `CCc1ccsc1C(=O)N1CCN(CC(N)=O)CC1` | -1.38% | -14.1% | 11.19% | 3.134% |
| `CN1C(=O)CC[C@]12CC[C@@H](NCc1ccsc1)CC2` | 2.23% | -22.68% | -2.035% | 6.796% |
| `c1c(CN2CCCCC2)nc2n1CCNC2` | -7.748% | 17.37% | 5.5% | 6.863% |

The values are deposited in ChEMBL (CHEMBL3988442, “University of Dundee, Small-Polar-MMV Screening Library” (2021)).